Results are given in words; binding and its absence hold for the method and conditions named. Some results given as binding are weak or reduced against the parent protein; the word gives no strength.

Sequences of proteins named here, by UniProt entry; tags and fusion partners are left off. Residues count along the entry.
UniProt Q8CIZ8, residues 764-2813: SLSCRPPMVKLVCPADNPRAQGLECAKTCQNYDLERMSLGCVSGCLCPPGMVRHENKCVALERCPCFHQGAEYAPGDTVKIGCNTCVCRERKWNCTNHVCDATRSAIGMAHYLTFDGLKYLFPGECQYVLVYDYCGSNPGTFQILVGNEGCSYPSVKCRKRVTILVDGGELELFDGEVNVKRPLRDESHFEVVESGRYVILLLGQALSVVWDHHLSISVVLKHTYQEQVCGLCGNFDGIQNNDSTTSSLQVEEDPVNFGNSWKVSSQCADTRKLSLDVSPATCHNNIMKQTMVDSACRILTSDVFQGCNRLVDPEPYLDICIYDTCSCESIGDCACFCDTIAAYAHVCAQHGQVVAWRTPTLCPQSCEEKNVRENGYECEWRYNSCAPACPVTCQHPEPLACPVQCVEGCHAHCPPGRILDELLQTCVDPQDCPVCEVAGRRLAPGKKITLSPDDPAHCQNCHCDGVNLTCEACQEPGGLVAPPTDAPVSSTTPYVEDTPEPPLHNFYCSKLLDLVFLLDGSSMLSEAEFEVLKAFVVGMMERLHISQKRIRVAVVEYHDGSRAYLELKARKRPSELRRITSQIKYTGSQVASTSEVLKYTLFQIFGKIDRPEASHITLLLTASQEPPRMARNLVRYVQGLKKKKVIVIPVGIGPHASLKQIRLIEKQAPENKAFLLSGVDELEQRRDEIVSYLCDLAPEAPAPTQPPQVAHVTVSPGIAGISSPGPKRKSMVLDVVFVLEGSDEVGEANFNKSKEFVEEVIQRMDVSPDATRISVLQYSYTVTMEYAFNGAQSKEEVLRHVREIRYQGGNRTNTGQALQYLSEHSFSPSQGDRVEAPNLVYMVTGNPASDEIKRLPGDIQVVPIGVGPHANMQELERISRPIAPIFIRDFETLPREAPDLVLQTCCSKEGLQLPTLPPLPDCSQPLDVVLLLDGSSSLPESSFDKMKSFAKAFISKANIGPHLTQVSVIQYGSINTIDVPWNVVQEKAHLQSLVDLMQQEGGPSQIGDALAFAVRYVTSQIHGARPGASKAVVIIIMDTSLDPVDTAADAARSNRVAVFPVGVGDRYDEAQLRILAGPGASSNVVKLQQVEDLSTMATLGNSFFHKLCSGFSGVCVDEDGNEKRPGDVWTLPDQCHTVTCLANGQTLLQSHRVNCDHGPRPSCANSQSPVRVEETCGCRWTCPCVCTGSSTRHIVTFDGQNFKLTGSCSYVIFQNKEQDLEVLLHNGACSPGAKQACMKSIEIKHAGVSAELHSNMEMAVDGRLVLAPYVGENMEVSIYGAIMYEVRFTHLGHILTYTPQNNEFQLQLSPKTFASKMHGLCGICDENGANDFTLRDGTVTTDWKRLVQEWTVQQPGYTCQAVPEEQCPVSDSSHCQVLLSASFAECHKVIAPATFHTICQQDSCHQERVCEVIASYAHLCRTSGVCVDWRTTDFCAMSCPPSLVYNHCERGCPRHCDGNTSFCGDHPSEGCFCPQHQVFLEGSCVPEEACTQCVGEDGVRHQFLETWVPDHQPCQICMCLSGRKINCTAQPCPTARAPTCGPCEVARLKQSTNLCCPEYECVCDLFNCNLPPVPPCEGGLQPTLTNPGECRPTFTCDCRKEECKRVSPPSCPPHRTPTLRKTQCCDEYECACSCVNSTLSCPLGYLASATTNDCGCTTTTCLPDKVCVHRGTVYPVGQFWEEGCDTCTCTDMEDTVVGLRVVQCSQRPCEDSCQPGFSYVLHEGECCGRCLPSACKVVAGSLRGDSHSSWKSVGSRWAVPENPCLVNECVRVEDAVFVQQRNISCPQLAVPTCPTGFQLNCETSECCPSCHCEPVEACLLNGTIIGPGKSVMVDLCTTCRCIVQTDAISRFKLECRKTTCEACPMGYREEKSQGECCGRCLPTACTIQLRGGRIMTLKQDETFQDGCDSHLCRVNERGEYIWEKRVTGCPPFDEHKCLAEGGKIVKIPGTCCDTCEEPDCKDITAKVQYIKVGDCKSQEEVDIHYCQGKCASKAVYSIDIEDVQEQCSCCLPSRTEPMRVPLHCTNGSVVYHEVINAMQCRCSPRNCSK

Results on 1 substance are retold here after doi:10.1101/2022.05.03.490496.

The target of the test is von Willebrand factor (Vwf) (mouse (endogenous in blood plasma)) (UniProt Q8CIZ8). The experiment in a line: SDS/agarose gel electrophoresis with immunoblot. For orientation: Immunoblotting shows a protein as a band on a membrane.

“von Willebrand factor (Vwf) (from UniProt Q8CIZ8 764-2813)”: the binding result is “binds”.
